Measurements: PMC7819943, “Rice protein-binding microarrays: a tool to detect cis-acting elements near promoter regions in rice”
The other results are listed elsewhere or left out.

Amino acid sequences for entries named in this document (tags omitted).
UniProt Q0JBA9, entry or part of it: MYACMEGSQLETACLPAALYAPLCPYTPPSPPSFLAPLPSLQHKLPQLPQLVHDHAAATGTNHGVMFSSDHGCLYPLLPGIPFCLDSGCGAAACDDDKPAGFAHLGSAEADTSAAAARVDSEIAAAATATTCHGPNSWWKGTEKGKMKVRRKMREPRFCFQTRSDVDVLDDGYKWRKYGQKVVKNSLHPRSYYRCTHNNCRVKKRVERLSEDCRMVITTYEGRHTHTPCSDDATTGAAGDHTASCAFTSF

Each sequence was assayed against OsWRKY34 (Oryza sativa, UniProt Q0JBA9 1-250) (assay: protein-binding microarray (RPBM); PBS, 2% BSA, 51.3 ng/ul salmon testes DNA, 50 uM zinc acetate, 200 nM TF, 25 C, 1 h; high values mean tight binding). Settings: protein: recombinant; tags: N-terminal polyhistidine and DsRed monomer fusion (pET32a); label: CyDye5-dUTP incorporated in the synthesized complementary strand; 3' TTTTT single-stranded linker to array surface; dsDNA, one strand shown.
Procedure, shortened: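 Polyhistidine-tagged DsRed fusions of transcription factors, joined at the N-terminus, were expressed in E. coli BL21-CodonPlus and isolated on Ni–NTA. They were incubated at 200 nM for 1 h at 25 °C on a custom Agilent array, double-stranded and BSA-blocked, in PBS with 2% BSA, salmon testes DNA and 50 µM zinc acetate. The binding signal is per-feature fluorescence intensity (arbitrary units) read on an Axon 4000B scanner after washing.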

Row | Sequence | binding signal
1 | GGTTCCTGTTGAATCATCGGTCCGGTCTGGTTTTCTAGCTCGGAGTCACCTAGTGCAG | 8350 fluorescence intensity (a.u.)
2 | ACATTTTTTTCCCCGGTGACCACACTATATTCCTGGTCCACGGAGTCACCTAGTGCAG | 9260 fluorescence intensity (a.u.)
3 | TTAGCGATAGACCTCCTCATCTACATCTTCTCTCGCTATCCGGAGTCACCTAGTGCAG | 10500 fluorescence intensity (a.u.)
4 | ACCCGGCTCACATCACATCGCCTATATAGGGCCTTCTAGTCGGAGTCACCTAGTGCAG | 8570 fluorescence intensity (a.u.)
5 | GACGAACGGTCAAACATGTTTAAAAAAGTCAACGGCGTCACGGAGTCACCTAGTGCAG | 13500 fluorescence intensity (a.u.)
6 | ACAATCTTTTGTTGCCCATTCATCTGGGTTTTCTTCTGCTCGGAGTCACCTAGTGCAG | 11400 fluorescence intensity (a.u.)
7 | TTTGTGGGTTTTTTTGGCTGCTTCCATTTCGCAATCCACTCGGAGTCACCTAGTGCAG | 13100 fluorescence intensity (a.u.)
8 | CGACTTGTTGCCTCAAACAATTCCTGGTTATAAAACACCACGGAGTCACCTAGTGCAG | 35500 fluorescence intensity (a.u.)
9 | TATATTGGTGGTATTTTTAACATTTATTTTTACATATGTACGGAGTCACCTAGTGCAG | 10100 fluorescence intensity (a.u.)
10 | AAACTTATGCATAAAATATTTTCCTTGTCTCCTCAATCTTCGGAGTCACCTAGTGCAG | 10700 fluorescence intensity (a.u.)
11 | ATGTGCCTTTGTCTCTGTTTTTCTAGCGACCATTTTTAGACGGAGTCACCTAGTGCAG | 8560 fluorescence intensity (a.u.)
12 | AGACTCGGTTTCTAATTAAACATTTGCATACTTGTTTGTTCGGAGTCACCTAGTGCAG | 9160 fluorescence intensity (a.u.)
13 | GCGCGGTGGTGGTGGTGGTGGTTGCTGTGGTAGCGAGGGTCGGAGTCACCTAGTGCAG | 13100 fluorescence intensity (a.u.)
14 | TCACATCATTTTTCATACTAGGTGACAGCTTATTTAATACCGGAGTCACCTAGTGCAG | 8420 fluorescence intensity (a.u.)
15 | CACACACCTTTTTAATCCCGCCATCACCGCCTATCCCACGCGGAGTCACCTAGTGCAG | 8700 fluorescence intensity (a.u.)
16 | ATTGGACTCGTGGAAATCTTTCCATCCCGCTGCCTAGCTTCGGAGTCACCTAGTGCAG | 9020 fluorescence intensity (a.u.)
17 | AGCTATTCAATGCTCCTTTTGTTGAGTACTTGCCGTCTCACGGAGTCACCTAGTGCAG | 9370 fluorescence intensity (a.u.)
18 | GAGGTGTCTCACTGTCTCACTGTTGTTTGTCTTCCTCCTTCGGAGTCACCTAGTGCAG | 11400 fluorescence intensity (a.u.)
19 | CTATCCAGATTAAATGGGCCTCCAAAATACCAAAGGCCCACGGAGTCACCTAGTGCAG | 8390 fluorescence intensity (a.u.)
20 | TCGCACACCGTCAACAACCCAACCCCAACTACCCCAAAATCGGAGTCACCTAGTGCAG | 8500 fluorescence intensity (a.u.)
21 | CTCATGGTCTCATCTTTTCGTCTATCATTATCTTTATCAGCGGAGTCACCTAGTGCAG | 11100 fluorescence intensity (a.u.)
22 | TAATTTGGTGCATGCTTGGATTTGGGGATTTCTTTCTTATCGGAGTCACCTAGTGCAG | 13400 fluorescence intensity (a.u.)
23 | CTCCTGCGCCGTCGTTTCCCTCTTCCATCCTTCGCTCGCTCGGAGTCACCTAGTGCAG | 9790 fluorescence intensity (a.u.)
24 | CAGCCTGTACACCAATACGTCCACGCACACAAGTCGCTGCCGGAGTCACCTAGTGCAG | 8090 fluorescence intensity (a.u.)
25 | ATGTTTGACCATTCGTCTTATTCAAAAATTTTATGCAAATCGGAGTCACCTAGTGCAG | 10200 fluorescence intensity (a.u.)
26 | GATTGGGCAAGCCGGCCGGTGGTGGGGAGGTCGTTGCCGGCGGAGTCACCTAGTGCAG | 11100 fluorescence intensity (a.u.)
27 | CCCGGAGCTCCGCGCCTAGACTGCCAGCTCGCCACCTCGTCGGAGTCACCTAGTGCAG | 8550 fluorescence intensity (a.u.)

Row | Sequence | binding signal
28 | TTGACCACCAAGCTCCTGCTTCTTGCAATCTTGATCGATACGGAGTCACCTAGTGCAG | 9170 fluorescence intensity (a.u.)
29 | GCACCGATACAGCCTTCACCCGCACCTCGCTTCCTTGGATCGGAGTCACCTAGTGCAG | 8670 fluorescence intensity (a.u.)
30 | CTATTGATTTCTGCTGCTACTTTTCTATACTGTATTTTGTCGGAGTCACCTAGTGCAG | 8410 fluorescence intensity (a.u.)
31 | TGCTTCTCGGGGTTTGGTGGTGTTCTAGCAGGCAGTTCGTCGGAGTCACCTAGTGCAG | 10100 fluorescence intensity (a.u.)
32 | ACGTCATTATTTTAGGTCTTTAATCCCTTGGGACTTTGTACGGAGTCACCTAGTGCAG | 8310 fluorescence intensity (a.u.)
33 | CCACTGCTTCCAGAAGCGAGCGAGCTCTCCTTTCCTTTCTCGGAGTCACCTAGTGCAG | 8890 fluorescence intensity (a.u.)
34 | CCCTTTTTCTGCCCGGAATCGCGCTGCGTCGTACCCCGACCGGAGTCACCTAGTGCAG | 10000 fluorescence intensity (a.u.)
35 | AGCAGCCAAACTCCGTGCATTTCCCTTTCAAATGACCTCCCGGAGTCACCTAGTGCAG | 8180 fluorescence intensity (a.u.)
36 | GCTATTCTCCGTTTATTTCCTGCCAAAGCTCTATCCATTTCGGAGTCACCTAGTGCAG | 10100 fluorescence intensity (a.u.)
37 | AATCACTTTCTACTGCTTATTGGTTTCTGCACGTTTCTTTCGGAGTCACCTAGTGCAG | 14300 fluorescence intensity (a.u.)
38 | CTCTACTCATCTTCTCTGCCAGCTGCTACTACACCAACCACGGAGTCACCTAGTGCAG | 8840 fluorescence intensity (a.u.)
39 | CGTCGCCTCCCTCGCAGGCGCCCTCCTTGCCATCCGCCGACGGAGTCACCTAGTGCAG | 8470 fluorescence intensity (a.u.)
40 | AACCACCGCTCAGCCTCGACGTCGAGATCCATAATCCACACGGAGTCACCTAGTGCAG | 8040 fluorescence intensity (a.u.)
41 | TTTTGCAAAATTTAAGATATGCCATCCTGACCCACATGTTCGGAGTCACCTAGTGCAG | 8300 fluorescence intensity (a.u.)
42 | ATCCCATCTCGTTTGTTCTTCACTCTGTGTATTATGCATCCGGAGTCACCTAGTGCAG | 9320 fluorescence intensity (a.u.)
43 | CACATCACCACTTCACTTGGCCCTAATACTCCTTTTTTAGCGGAGTCACCTAGTGCAG | 8450 fluorescence intensity (a.u.)
44 | ACTCGCATCTCCAATTCGGTCCGAATTTTTCCAAATTCCACGGAGTCACCTAGTGCAG | 8680 fluorescence intensity (a.u.)
45 | TCAATTGTCGCGAGTCTTCTCCTTTTTTTTTTCGTTTTTTCGGAGTCACCTAGTGCAG | 11900 fluorescence intensity (a.u.)
46 | GCAAGCTCCAGATCTGACGGCATCATCACCACTGCTTCTCCGGAGTCACCTAGTGCAG | 9770 fluorescence intensity (a.u.)
47 | ATCCCACTGTTTAGTTCGTTTAGTCTGTCACATATGATCCCGGAGTCACCTAGTGCAG | 8050 fluorescence intensity (a.u.)
48 | TGGCATCATCGACCATACACTTTTGTCAATCCGTTCAGCTCGGAGTCACCTAGTGCAG | 8910 fluorescence intensity (a.u.)
49 | GCCACTCTGGCGCCCCAAAAAGGATTATTTCTGGGATAAGCGGAGTCACCTAGTGCAG | 12000 fluorescence intensity (a.u.)
50 | GGACTGGGGAAGACGACACGACATGGGCTGGGCTGGGCTGCGGAGTCACCTAGTGCAG | 9570 fluorescence intensity (a.u.)
51 | CCGTCCCGTCTCCTCGCCCGCCGCCCTCGACTCCCGTCTCCGGAGTCACCTAGTGCAG | 8660 fluorescence intensity (a.u.)
52 | TTACTGACACTGAAAGTTTCTATTATTTCACAATTCCTATCGGAGTCACCTAGTGCAG | 8100 fluorescence intensity (a.u.)
53 | ATCGCTCTAAAAATATTTGTGCGTTGACTAGAAACCATGTCGGAGTCACCTAGTGCAG | 13700 fluorescence intensity (a.u.)
54 | CTCGCCGTTGCAGCCATCTCACTGCAGTGTACCCTGCAACCGGAGTCACCTAGTGCAG | 8050 fluorescence intensity (a.u.)

For reference, part of the list above:
Row | Sequence | binding signal
50 | GGACTGGGGAAGACGACACGACATGGGCTGGGCTGGGCTGCGGAGTCACCTAGTGCAG | 9570 fluorescence intensity (a.u.)
51 | CCGTCCCGTCTCCTCGCCCGCCGCCCTCGACTCCCGTCTCCGGAGTCACCTAGTGCAG | 8660 fluorescence intensity (a.u.)
52 | TTACTGACACTGAAAGTTTCTATTATTTCACAATTCCTATCGGAGTCACCTAGTGCAG | 8100 fluorescence intensity (a.u.)
